Test results taken from patent US20250064988A1, “MRI-AGENT LOADED PLATELET COMPOSITIONS AND METHODS OF PREPARING AND USING THE SAME” (Cellphire, Inc., priority 2022, published 2025).

Test system: platelets
Assay: Example 10 flow cytometry MFI in the FITC channel
Type: cell-based, human
Settings: 50 μM loading

NHS-Fluorescein was tested, and the “FITC fluorescence, cryopreserved platelets versus FDPDs” value was “lower in cryopreserved platelets than in FDPDs” and the “mean fluorescence intensity (MFI) in the FITC channel” value (unloaded product subtracted as background) was “strong fluorescence”.
